Results from publication PMC11402128, “The stability of FKBP9 maintained by BiP is crucial for glioma progression” (Genes & Diseases, 2023).
These are yes or no findings as the source states them, for the method shown. In cells and extracts the contact can be indirect. Tags and fused reporters may be left off the sequences shown.

Target: T1, Flag-HA-labeled FKBP9 (FKBP9-HA) (human) (UniProt O95302)
T1 sequence: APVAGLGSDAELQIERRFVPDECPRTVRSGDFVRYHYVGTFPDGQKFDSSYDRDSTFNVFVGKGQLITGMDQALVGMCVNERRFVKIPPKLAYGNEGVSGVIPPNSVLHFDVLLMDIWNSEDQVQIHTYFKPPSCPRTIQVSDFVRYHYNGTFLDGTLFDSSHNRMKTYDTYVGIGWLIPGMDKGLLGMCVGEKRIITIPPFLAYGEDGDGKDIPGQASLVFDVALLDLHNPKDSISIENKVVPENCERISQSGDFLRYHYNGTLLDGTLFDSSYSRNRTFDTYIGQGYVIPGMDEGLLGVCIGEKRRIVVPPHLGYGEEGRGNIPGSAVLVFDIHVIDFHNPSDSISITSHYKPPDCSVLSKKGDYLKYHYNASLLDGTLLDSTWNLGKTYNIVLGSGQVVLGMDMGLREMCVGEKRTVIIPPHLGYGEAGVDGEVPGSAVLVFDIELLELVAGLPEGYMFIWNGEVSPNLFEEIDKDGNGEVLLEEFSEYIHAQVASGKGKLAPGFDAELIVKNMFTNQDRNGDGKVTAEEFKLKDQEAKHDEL
Experiment: co-IP; HA antibody co-immunoprecipitation from lysate of T98G cells expressing HA-tagged proteins (FKBP9-HA, 1461-HA, 903-HA, BiP-HA or EGFP-HA), detected by Western blot; buffer 50 mM Tris-HCl pH 7.4, 150 mM NaCl, 3 mM EDTA, 0.5% Triton X-100

| Substance | binding |
| --- | --- |
| Hsp40, endogenous (human (endogenous in T98G)) | no binding |
| Hsp70, endogenous (human (endogenous in T98G)) | no binding |
